PubChem BioAssay AID1259405 | NCATS – 2018
Shown is a random part of about 50,000 reagents tested. About 4,000 of all reagents (8%) count as active. 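Mouse siRNA library applied to hamster cells; one well for each siRNA.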 Reagents against one gene are numbered here. Reagent sequences are not shown.

Screen: 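Mouse-designed siRNAs used to find CHO productivity engineering targets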 (primary screen)
Cells: Chinese hamster CHO-K1 ovary cells with stable secreted eGFP expression
Reagents: single siRNA against mouse genes, 0.8 pmol siRNA per well (2 µl of 400 nM stock)
Time to read-out: 3 days
Measured: 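Per-well intracellular GFP measured by laser scanning cytometry, plus viability from ATP luminescence, each relative to plate median of non-targeting control wells, in %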
Reading the numbers: GFP, % of control: higher = more GFP per well, higher productivity; viability (ATP), % of control: higher = more viable cells (more ATP)
Rule for the call: 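a knock-down is called active if GFP reaches 120% or more of non-targeting control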

Ly6m (GeneID 67038) #1: GFP, % of control = 77; viability (ATP), % of control = 59.8; outcome = inactive
Ly6m (GeneID 67038) #2: GFP, % of control = 54; viability (ATP), % of control = 63.3; outcome = inactive
Ly6m (GeneID 67038) #3: GFP, % of control = 71.1; viability (ATP), % of control = 84.6; outcome = inactive
Cnpy2 (GeneID 56530) #1: GFP, % of control = 98.4; viability (ATP), % of control = 90.4; outcome = inactive
Cnpy2 (GeneID 56530) #2: GFP, % of control = 120; viability (ATP), % of control = 101; outcome = active
Cnpy2 (GeneID 56530) #3: GFP, % of control = 103; viability (ATP), % of control = 58.8; outcome = inactive
Crmp1 (GeneID 12933) #1: GFP, % of control = 51; viability (ATP), % of control = 40.7; outcome = inactive
Crmp1 (GeneID 12933) #2: GFP, % of control = 50.6; viability (ATP), % of control = 71; outcome = inactive
Crmp1 (GeneID 12933) #3: GFP, % of control = 137; viability (ATP), % of control = 105; outcome = active
Tspan17 (GeneID 74257) #1: GFP, % of control = 48.7; viability (ATP), % of control = 71.7; outcome = inactive
Tspan17 (GeneID 74257) #2: GFP, % of control = 108; viability (ATP), % of control = 101; outcome = inactive
Tspan17 (GeneID 74257) #3: GFP, % of control = 77; viability (ATP), % of control = 67.6; outcome = inactive
Rnf115 (GeneID 67845) #1: GFP, % of control = 52.2; viability (ATP), % of control = 47.8; outcome = inactive
Rnf115 (GeneID 67845) #2: GFP, % of control = 69.2; viability (ATP), % of control = 75; outcome = inactive
Rnf115 (GeneID 67845) #3: GFP, % of control = 72.1; viability (ATP), % of control = 95; outcome = inactive
Mapkap1 (GeneID 227743) #1: GFP, % of control = 80.7; viability (ATP), % of control = 60.9; outcome = inactive
Mapkap1 (GeneID 227743) #2: GFP, % of control = 46.4; viability (ATP), % of control = 54; outcome = inactive
Mapkap1 (GeneID 227743) #3: GFP, % of control = 108; viability (ATP), % of control = 97.4; outcome = inactive
Pde6h (GeneID 78600) #1: GFP, % of control = 141; viability (ATP), % of control = 101; outcome = active
Pde6h (GeneID 78600) #2: GFP, % of control = 104; viability (ATP), % of control = 87.3; outcome = inactive
Pde6h (GeneID 78600) #3: GFP, % of control = 28.7; viability (ATP), % of control = 41.4; outcome = inactive
Yipf3 (GeneID 28064) #1: GFP, % of control = 54.3; viability (ATP), % of control = 57.3; outcome = inactive
Yipf3 (GeneID 28064) #2: GFP, % of control = 107; viability (ATP), % of control = 96; outcome = inactive
Yipf3 (GeneID 28064) #3: GFP, % of control = 61.4; viability (ATP), % of control = 53.8; outcome = inactive
Ceacam19 (GeneID 319930) #1: GFP, % of control = 89.2; viability (ATP), % of control = 70.9; outcome = inactive
Ceacam19 (GeneID 319930) #2: GFP, % of control = 119; viability (ATP), % of control = 75.5; outcome = inactive
Ceacam19 (GeneID 319930) #3: GFP, % of control = 112; viability (ATP), % of control = 107; outcome = inactive
Higd1a (GeneID 56295) #1: GFP, % of control = 71.4; viability (ATP), % of control = 82.9; outcome = inactive
Higd1a (GeneID 56295) #2: GFP, % of control = 79.9; viability (ATP), % of control = 79.8; outcome = inactive
Higd1a (GeneID 56295) #3: GFP, % of control = 78.4; viability (ATP), % of control = 82.5; outcome = inactive
Eif4a2 (GeneID 13682) #1: GFP, % of control = 36.3; viability (ATP), % of control = 40.9; outcome = inactive
Eif4a2 (GeneID 13682) #2: GFP, % of control = 27; viability (ATP), % of control = 35.6; outcome = inactive
Eif4a2 (GeneID 13682) #3: GFP, % of control = 106; viability (ATP), % of control = 105; outcome = inactive
Tacr2 (GeneID 21337) #1: GFP, % of control = 77.6; viability (ATP), % of control = 73.6; outcome = inactive
Tacr2 (GeneID 21337) #2: GFP, % of control = 89.6; viability (ATP), % of control = 71.4; outcome = inactive
Tacr2 (GeneID 21337) #3: GFP, % of control = 77.2; viability (ATP), % of control = 82.9; outcome = inactive
Epha5 (GeneID 13839) #1: GFP, % of control = 88.1; viability (ATP), % of control = 103; outcome = inactive
Epha5 (GeneID 13839) #2: GFP, % of control = 49.1; viability (ATP), % of control = 79.3; outcome = inactive
Epha5 (GeneID 13839) #3: GFP, % of control = 61.5; viability (ATP), % of control = 75.7; outcome = inactive
Dmtn (GeneID 13829) #1: GFP, % of control = 47.1; viability (ATP), % of control = 41.9; outcome = inactive
Dmtn (GeneID 13829) #2: GFP, % of control = 71.3; viability (ATP), % of control = 70.5; outcome = inactive
Dmtn (GeneID 13829) #3: GFP, % of control = 70.1; viability (ATP), % of control = 77.2; outcome = inactive

Reformatted: results already given.
{"target gene": "Mapkap1 (GeneID 227743)", "siRNA no.": 1, "GFP, % of control": 80.7, "viability (ATP), % of control": 60.9, "outcome": "inactive"}
{"target gene": "Mapkap1 (GeneID 227743)", "siRNA no.": 2, "GFP, % of control": 46.4, "viability (ATP), % of control": 54, "outcome": "inactive"}
{"target gene": "Mapkap1 (GeneID 227743)", "siRNA no.": 3, "GFP, % of control": 108, "viability (ATP), % of control": 97.4, "outcome": "inactive"}
{"target gene": "Pde6h (GeneID 78600)", "siRNA no.": 1, "GFP, % of control": 141, "viability (ATP), % of control": 101, "outcome": "active"}
